Taken from: PubChem BioAssay AID743454 (Peter MacCallum Cancer Centre, 2014)

- Aim: 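Search for knock-downs that restore vorinostat killing in resistant colon cancer cells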 (primary screen)
- Cells: human HCT116-VR colon cancer cells, selected for vorinostat resistance
- Reagents: siRNA pool against human genes, 40 nM siRNA pool
- Time to read-out: vorinostat for 24 h, read-out about 72 h after transfection
- Challenge: vorinostat at 2.5 µM final
- Detection: 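Two measures, CellTiter-Fluor viability and luminescent caspase 3/7 activity, each as fold change against same-plate mock wells, mean of duplicates, then screen-wide robust z-score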
- Direction: viability robust z-score: higher = more viable cells than screen typical; caspase robust z-score: higher = more caspase 3/7 activity than screen typical
- Active means: 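a knock-down is a hit when classed RV1 or RV2 for lowered viability, or CA1 or CA2 for caspase activation; those lethal without drug were dropped; hits were retested singly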
The whole screen tested about 18,000 reagents; shown is an unselected part. Of all reagents, 450 (2.5%) were called active. 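Single biological run; no consistent viability z cut-off exists, so the class columns, not z-scores, define the calls.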 Entries without a mark were called inactive. Reagents against one gene are numbered here.

no.	Target gene	reagent	viability hit class	caspase hit class	viability robust z-score	caspase robust z-score
1	FCGR1BP (GeneID 2210)	1	no change	no change	-0.32	-0.5
2	SLC25A3 (GeneID 5250)	1	no change	no change	0.46	1.11
3	IL6 (GeneID 3569)	1	no change	no change	0.6	-1
4	TRIM59 (GeneID 286827)	1	no change (active)	CA2 (caspase activation)	-3.25	6.57
5	GFOD2 (GeneID 81577)	1	no change	no change	-0.19	0.17
6	PTGS1 (GeneID 5742)	1	no change	no change	-0.73	0.72
7	UHRF2 (GeneID 115426)	1	no change	no change	-0.54	3.72
8	DNAJB7 (GeneID 150353)	1	no change	no change	-1.31	0.36
9	SARAF (GeneID 51669)	1	no change	no change	2.23	-0.58
10	SFTPB (GeneID 6439)	1	no change	no change	-0.35	2.41
11	ASIC1 (GeneID 41)	1	no change	no change	-2.01	2.86
12	PLXNA3 (GeneID 55558)	1	no change	no change	-0.28	1.51
13	NOP14 (GeneID 8602)	1	no change	no change	-1.52	2.38
14	SLC16A3 (GeneID 9123)	1	no change	no change	0.12	0.16
15	RABL2B (GeneID 11158)	1	no change	no change	-0.4	1.23
16	RBM4 (GeneID 5936)	1	no change	no change	1.03	2.34
17	ATXN2 (GeneID 6311)	1	no change	no change	0.59	-0.94
18	VPS28 (GeneID 51160)	1	no change	no change	1.37	2.11
19	CCND3 (GeneID 896)	1	no change	no change	1.29	-0.25
20	DNASE1L1 (GeneID 1774)	1	no change	no change	0.06	-0.86
21	AVIL (GeneID 10677)	1	no change	no change	1.52	0.32
22	IK (GeneID 3550)	1	no change	no change	-4.72	4.38
23	NTSR2 (GeneID 23620)	1	no change	no change	0.14	2.68
24	MIMS1 (GeneID 125228)	1	no change	no change	-0.78	-0.94
25	NCAPD3 (GeneID 23310)	1	no change	no change	0.5	0.74
26	SIPA1L2 (GeneID 57568)	1	no change	no change	-0.34	-0.78
27	ZMYM4 (GeneID 9202)	1	no change	no change	-1.75	2.26
28	LSM7 (GeneID 51690)	1	no change	no change	-1.58	-1.27
29	TMEM108 (GeneID 66000)	1	no change	no change	0.2	-0.86
30	PRSS8 (GeneID 5652)	1	no change	no change	-0.94	0.2
31	DHRS9 (GeneID 10170)	1	no change	no change	0.7	-0.36
32	LRP1 (GeneID 4035)	1	no change	no change	-1.82	0.46
33	S1PR3 (GeneID 1903)	1	no change	no change	-1.21	1.86
34	S1PR3 (GeneID 1903)	2	no change	no change	0.44	3
35	NTF3 (GeneID 4908)	1	no change	no change	-2.63	2.7
36	PSG11 (GeneID 5680)	1	no change	no change	0.22	-1.04
37	MARCKS (GeneID 4082)	1	no change	no change	0.96	0.18
38	DUSP4 (GeneID 1846)	1	no change	no change	-0.19	-0.83
39	LEF1 (GeneID 51176)	1	no change	no change	0.53	-0.56
40	FPGS (GeneID 2356)	1	no change	no change	-0.71	3.72
41	OR4F29 (GeneID 729759)	1	no change	no change	-0.02	0.18
42	LEAP2 (GeneID 116842)	1	no change	no change	-1.1	-1.08
43	RSF1 (GeneID 51773)	1	no change	no change	-0.66	4.47
44	ITCH (GeneID 83737)	1	no change	no change	-2.4	-0.5
45	GRIN2D (GeneID 2906)	1	no change	no change	-0.31	-0.58
46	PRKCB (GeneID 5579)	1	no change	no change	-0.63	-0.19
47	CCR10 (GeneID 2826)	1	no change	no change	0.18	-1.1
48	SLIT3 (GeneID 6586)	1	no change	no change	-0.12	-0.3
49	RBM4B (GeneID 83759)	1	no change	no change	-1.77	3.48
50	GPX4 (GeneID 2879)	1	no change (active)	CA2 (caspase activation)	-0.44	6.26
51	OR13G1 (GeneID 441933)	1	no change	no change	0.46	0.1
52	CCDC90B (GeneID 60492)	1	no change	no change	1.1	-0.7
53	EBNA1BP2 (GeneID 10969)	1	no change	no change	-2.73	1.92
54	PMS2P5 (GeneID 5383)	1	no change	no change	0.24	0.27
55	CA5B (GeneID 11238)	1	no change	no change	-0.5	-0.27
56	CD36 (GeneID 948)	1	no change	no change	0.1	-0.52
57	REV1 (GeneID 51455)	1	no change	no change	0.09	-0.63

Called active, of those listed so far:
Target gene	reagent	viability hit class	caspase hit class	viability robust z-score	caspase robust z-score
TRIM59 (GeneID 286827)	1	no change (active)	CA2 (caspase activation)	-3.25	6.57
GPX4 (GeneID 2879)	1	no change (active)	CA2 (caspase activation)	-0.44	6.26
